The experiment has as its target recombinant CUB-domain of human cC1qR/CRT, thioredoxin fusion protein (human). Briefly: competitive inhibition of radiolabelled CUB-domain binding to immobilised C1q.

Results are given in words; binding and its absence hold for the method and conditions named. Some entries that bind do so weakly or less than the wild type.

B1: CL43 (ligand, UniProt P42916 21-321, looked up)
chain: EEMDVYSEKTLTDPCTLVVCAPPADSLRGHDGRDGKEGPQGEKGDPGPPGMPGPAGREGPSGRQGSMGPPGTPGPKGEPGPEGGVGAPGMPGSPGPAGLKGERGTPGPGGAIGPQGPSGAMGPPGLKGDRGDPGEKGARGETSVLEVDTLRQRMRNLEGEVQRLQNIVTQYRKAVLFPDGQAVGEKIFKTAGAVKSYSDAEQLCREAKGQLASPRSSAENEAVTQLVRAKNKHAYLSMNDISKEGKFTYPTGGSLDYSNWAPGEPNNRAKDEGPENCLEIYSDGNWNDIECREERLVICEF
For the molecule B1, the binding entry was “binds”.

Values taken from patent publication US20040259787A1.
